Results are given in words; binding and its absence hold for the method and conditions named. Binding seen in cells or lysates may run through a third protein. Some entries that bind do so weakly or less than the wild type. Where a sequence is shown, tags or fusion partners need not be part of it.
Target: T1, TOPORS (human (endogenous in HeLa)) (UniProt Q9NS56)
T1 sequence: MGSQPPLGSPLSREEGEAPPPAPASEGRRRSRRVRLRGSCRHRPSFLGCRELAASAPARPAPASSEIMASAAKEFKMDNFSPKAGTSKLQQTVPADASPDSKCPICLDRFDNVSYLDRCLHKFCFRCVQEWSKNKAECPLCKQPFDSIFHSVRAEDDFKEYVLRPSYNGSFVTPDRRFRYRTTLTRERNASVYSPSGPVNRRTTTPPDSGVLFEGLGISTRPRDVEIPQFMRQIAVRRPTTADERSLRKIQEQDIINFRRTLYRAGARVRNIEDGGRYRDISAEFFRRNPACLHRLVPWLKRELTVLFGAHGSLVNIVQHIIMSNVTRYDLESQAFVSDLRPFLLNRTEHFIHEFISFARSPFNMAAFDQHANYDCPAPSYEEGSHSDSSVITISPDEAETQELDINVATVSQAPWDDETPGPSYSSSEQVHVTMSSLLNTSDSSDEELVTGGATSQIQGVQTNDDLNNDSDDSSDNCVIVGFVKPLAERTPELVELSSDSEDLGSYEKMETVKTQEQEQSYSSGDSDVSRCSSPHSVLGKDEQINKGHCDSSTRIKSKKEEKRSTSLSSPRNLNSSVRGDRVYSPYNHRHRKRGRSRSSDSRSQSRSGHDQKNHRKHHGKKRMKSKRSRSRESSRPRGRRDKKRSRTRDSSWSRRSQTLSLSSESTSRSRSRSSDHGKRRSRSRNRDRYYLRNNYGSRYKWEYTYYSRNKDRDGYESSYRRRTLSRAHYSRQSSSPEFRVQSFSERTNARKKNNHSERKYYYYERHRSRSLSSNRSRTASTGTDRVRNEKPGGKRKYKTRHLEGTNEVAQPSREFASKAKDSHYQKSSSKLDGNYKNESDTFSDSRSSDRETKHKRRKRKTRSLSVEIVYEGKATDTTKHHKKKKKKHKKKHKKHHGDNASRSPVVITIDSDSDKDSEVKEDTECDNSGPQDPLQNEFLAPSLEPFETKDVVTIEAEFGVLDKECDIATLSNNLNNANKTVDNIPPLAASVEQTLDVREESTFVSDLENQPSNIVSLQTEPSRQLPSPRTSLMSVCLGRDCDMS
Experiment: co-IP; co-immunoprecipitation of endogenous proteins from HeLa cell extracts

binding: binds
B1: Prostaglandin-D2 synthase (protein, UniProt P41222 23-190)
chain: APEAQVSVQPNFQQDKFLGRWFSAGLASNSSWLREKKAALSMCKSVVAPATDGGLNLTSTFLRKNQCETRTMLLQPAGSLGSYSYRSPHWGSTYSVSVVETDYDQYALLYSQGSKGPGEDFRMATLYSRTQTPRAELKEKFTAFCKAQGFTEDTIVFLPQTDKCMTEQ

— article PMC4519135
